# Assay results from patent publication US20220268780A1, “METHODS OF PREDICTING ENDOMETRIAL RECEPTIVITY” (HUDSON INSTITUTE OF MEDICAL RESEARCH, priority 2019, published 2022).
# B1: Aminopeptidase N (protein, UniProt P15144 2-967, looked up)
# Aminopeptidase N: AKGFYISKSLGILGILLGVAAVCTIIALSVVYSQEKNKNANSSPVASTTPSASATTNPASATTLDQSKAWNRYRLPNTLKPDSYRVTLRPYLTPNDRGLYVFKGSSTVRFTCKEATDVIIIHSKKLNYTLSQGHRVVLRGVGGSQPPDIDKTELVEPTEYLVVHLKGSLVKDSQYEMDSEFEGELADDLAGFYRSEYMEGNVRKVVATTQMQAADARKSFPCFDEPAMKAEFNITLIHPKDLTALSNMLPKGPSTPLPEDPNWNVTEFHTTPKMSTYLLAFIVSEFDYVEKQASNGVLIRIWARPSAIAAGHGDYALNVTGPILNFFAGHYDTPYPLPKSDQIGLPDFNAGAMENWGLVTYRENSLLFDPLSSSSSNKERVVTVIAHELAHQWFGNLVTIEWWNDLWLNEGFASYVEYLGADYAEPTWNLKDLMVLNDVYRVMAVDALASSHPLSTPASEINTPAQISELFDAISYSKGASVLRMLSSFLSEDVFKQGLASYLHTFAYQNTIYLNLWDHLQEAVNNRSIQLPTTVRDIMNRWTLQMGFPVITVDTSTGTLSQEHFLLDPDSNVTRPSEFNYVWIVPITSIRDGRQQQDYWLIDVRAQNDLFSTSGNEWVLLNLNVTGYYRVNYDEENWRKIQTQLQRDHSAIPVINRAQIINDAFNLASAHKVPVTLALNNTLFLIEERQYMPWEAALSSLSYFKLMFDRSEVYGPMKNYLKKQVTPLFIHFRNNTNNWREIPENLMDQYSEVNAISTACSNGVPECEEMVSGLFKQWMENPNNNPIHPNLRSTVYCNAIAQGGEEEWDFAWEQFRNATLVNEADKLRAALACSKELWILNRYLSYTLNPDLIRKQDATSTIISITNNVIGQGLVWDFVQSNWKKLFNDYGGGSFSFSNLIQAVTRRFSTEYELQQLEQFKKDNEETGFGSGTRALEQALEKTKANIKWVKENKEVVLQWFTENSK
# B2: Brain acid soluble protein 1 (protein, UniProt P80723 2-227, looked up)
# Brain acid soluble protein 1: GGKLSKKKKGYNVNDEKAKEKDKKAEGAATEEEGTPKESEPQAAAEPAEAKEGKEKPDQDAEGKAEEKEGEKDAAAAKEEAPKAEPEKTEGAAEAKAEPPKAPEQEQAAPGPAAGGEAPKAAEAAAAPAESAAPAAGEEPSKEEGEPKKTEAPAAPAAQETKSDGAPASDSKPGSSEAAPSSKETPAATEAPSSTPKAQGPAASAEEPKPVEAPAANSDQTVTVKE
# B3: Calpain small subunit 1 (protein, UniProt P04632 1-268, looked up)
# Calpain small subunit 1: MFLVNSFLKGGGGGGGGGGGLGGGLGNVLGGLISGAGGGGGGGGGGGGGGGGGGGGTAMRILGGVISAISEAAAQYNPEPPPPRTHYSNIEANESEEVRQFRRLFAQLAGDDMEVSATELMNILNKVVTRHPDLKTDGFGIDTCRSMVAVMDSDTTGKLGFEEFKYLWNNIKRWQAIYKQFDTDRSGTICSSELPGAFEAAGFHLNEHLYNMIIRRYSDESGNMDFDNFISCLVRLDAMFRAFKSLDKDGTGQIQVNIQEWLQLTMYS
# B4: Disintegrin and metalloproteinase domain-containing protein 10 (protein, UniProt O14672 214-748, looked up)
# Disintegrin and …: TTSAEKNTCQLYIQTDHLFFKYYGTREAVIAQISSHVKAIDTIYQTTDFSGIRNISFMVKRIRINTTADEKDPTNPFRFPNIGVEKFLELNSEQNHDDYCLAYVFTDRDFDDGVLGLAWVGAPSGSSGGICEKSKLYSDGKKKSLNTGIITVQNYGSHVPPKVSHITFAHEVGHNFGSPHDSGTECTPGESKNLGQKENGNYIMYARATSGDKLNNNKFSLCSIRNISQVLEKKRNNCFVESGQPICGNGMVEQGEECDCGYSDQCKDECCFDANQPEGRKCKLKPGKQCSPSQGPCCTAQCAFKSKSEKCRDDSDCAREGICNGFTALCPASDPKPNFTDCNRHTQVCINGQCAGSICEKYGLEECTCASSDGKDDKELCHVCCMKKMDPSTCASTGSVQWSRHFSGRTITLQPGSPCNDFRGYCDVFMRCRLVDADGPLARLKKAIFSPELYENIAEWIVAHWWAVLLMGIALIMLMAGFIKICSVHTPSSNPKLPPPKPLPGTLKRRRPPQPIQQPQRQRPRESYQMGHMRR
# B5: Glutamyl aminopeptidase (protein, UniProt Q07075 1-957, looked up)
# Glutamyl aminopeptidase: MNFAEREGSKRYCIQTKHVAILCAVVVGVGLIVGLAVGLTRSCDSSGDGGPGTAPAPSHLPSSTASPSGPPAQDQDICPASEDESGQWKNFRLPDFVNPVHYDLHVKPLLEEDTYTGTVSISINLSAPTRYLWLHLRETRITRLPELKRPSGDQVQVRRCFEYKKQEYVVVEAEEELTPSSGDGLYLLTMEFAGWLNGSLVGFYRTTYTENGQVKSIVATDHEPTDARKSFPCFDEPNKKATYTISITHPKEYGALSNMPVAKEESVDDKWTRTTFEKSVPMSTYLVCFAVHQFDSVKRISNSGKPLTIYVQPEQKHTAEYAANITKSVFDYFEEYFAMNYSLPKLDKIAIPDFGTGAMENWGLITYRETNLLYDPKESASSNQQRVATVVAHELVHQWFGNIVTMDWWEDLWLNEGFASFFEFLGVNHAETDWQMRDQMLLEDVLPVQEDDSLMSSHPIIVTVTTPDEITSVFDGISYSKGSSILRMLEDWIKPENFQKGCQMYLEKYQFKNAKTSDFWAALEEASRLPVKEVMDTWTRQMGYPVLNVNGVKNITQKRFLLDPRANPSQPPSDLGYTWNIPVKWTEDNITSSVLFNRSEKEGITLNSSNPSGNAFLKINPDHIGFYRVNYEVATWDSIATALSLNHKTFSSADRASLIDDAFALARAQLLDYKVALNLTKYLKREENFLPWQRVISAVTYIISMFEDDKELYPMIEEYFQGQVKPIADSLGWNDAGDHVTKLLRSSVLGFACKMGDREALNNASSLFEQWLNGTVSLPVNLRLLVYRYGMQNSGNEISWNYTLEQYQKTSLAQEKEKLLYGLASVKNVTLLSRYLDLLKDTNLIKTQDVFTVIRYISYNSYGKNMAWNWIQLNWDYLVNRYTLNNRNLGRIVTIAEPFNTELQLWQMESFFAKYPQAGAGEKPREQVLETVKNNIEWLKQHRNTIREWFFNLLESG
# B6: Moesin (protein, UniProt P26038 2-577, looked up)
# Moesin: PKTISVRVTTMDAELEFAIQPNTTGKQLFDQVVKTIGLREVWFFGLQYQDTKGFSTWLKLNKKVTAQDVRKESPLLFKFRAKFYPEDVSEELIQDITQRLFFLQVKEGILNDDIYCPPETAVLLASYAVQSKYGDFNKEVHKSGYLAGDKLLPQRVLEQHKLNKDQWEERIQVWHEEHRGMLREDAVLEYLKIAQDLEMYGVNYFSIKNKKGSELWLGVDALGLNIYEQNDRLTPKIGFPWSEIRNISFNDKKFVIKPIDKKAPDFVFYAPRLRINKRILALCMGNHELYMRRRKPDTIEVQQMKAQAREEKHQKQMERAMLENEKKKREMAEKEKEKIEREKEELMERLKQIEEQTKKAQQELEEQTRRALELEQERKRAQSEAEKLAKERQEAEEAKEALLQASRDQKKTQEQLALEMAELTARISQLEMARQKKESEAVEWQQKAQMVQEDLEKTRAELKTAMSTPHVAEPAENEQDEQDENGAEASADLRADAMAKDRSEEERTTEAEKNERVQKHLKALTSELANARDESKKTANDMIHAENMRLGRDKYKTLRQIRQGNTKQRIDEFESM
# B7: Neprilysin (protein, UniProt P08473 2-750, looked up)
# Neprilysin: GKSESQMDITDINTPKPKKKQRWTPLEISLSVLVLLLTIIAVTMIALYATYDDGICKSSDCIKSAARLIQNMDATTEPCTDFFKYACGGWLKRNVIPETSSRYGNFDILRDELEVVLKDVLQEPKTEDIVAVQKAKALYRSCINESAIDSRGGEPLLKLLPDIYGWPVATENWEQKYGASWTAEKAIAQLNSKYGKKVLINLFVGTDDKNSVNHVIHIDQPRLGLPSRDYYECTGIYKEACTAYVDFMISVARLIRQEERLPIDENQLALEMNKVMELEKEIANATAKPEDRNDPMLLYNKMTLAQIQNNFSLEINGKPFSWLNFTNEIMSTVNISITNEEDVVVYAPEYLTKLKPILTKYSARDLQNLMSWRFIMDLVSSLSRTYKESRNAFRKALYGTTSETATWRRCANYVNGNMENAVGRLYVEAAFAGESKHVVEDLIAQIREVFIQTLDDLTWMDAETKKRAEEKALAIKERIGYPDDIVSNDNKLNNEYLELNYKEDEYFENIIQNLKFSQSKQLKKLREKVDKDEWISGAAVVNAFYSSGRNQIVFPAGILQPPFFSAQQSNSLNYGGIGMVIGHEITHGFDDNGRNFNKDGDLVDWWTQQSASNFKEQSQCMVYQYGNFSWDLAGGQHLNGINTLGENIADNGGLGQAYRAYQNYIKKNGEEKLLPGLDLNHKQLFFLNFAQVWCGTYRPEYAVNSIKTDVHSPGNFRIIGTLQNSAEFSEAFHCRKNSYMNPEKKCRVW
# B8: Cytoskeleton-associated protein 4 (protein, UniProt Q07065 1-602, looked up)
# Cytoskeleton-associated …: MPSAKQRGSKGGHGAASPSEKGAHPSGGADDVAKKPPPAPQQPPPPPAPHPQQHPQQHPQNQAHGKGGHRGGGGGGGKSSSSSSASAAAAAAAASSSASCSRRLGRALNFLFYLALVAAAAFSGWCVHHVLEEVQQVRRSHQDFSRQREELGQGLQGVEQKVQSLQATFGTFESILRSSQHKQDLTEKAVKQGESEVSRISEVLQKLQNEILKDLSDGIHVVKDARERDFTSLENTVEERLTELTKSINDNIAIFTEVQKRSQKEINDMKAKVASLEESEGNKQDLKALKEAVKEIQTSAKSREWDMEALRSTLQTMESDIYTEVRELVSLKQEQQAFKEAADTERLALQALTEKLLRSEESVSRLPEEIRRLEEELRQLKSDSHGPKEDGGFRHSEAFEALQQKSQGLDSRLQHVEDGVLSMQVASARQTESLESLLSKSQEHEQRLAALQGRLEGLGSSEADQDGLASTVRSLGETQLVLYGDVEELKRSVGELPSTVESLQKVQEQVHTLLSQDQAQAARLPPQDFLDRLSSLDNLKASVSQVEADLKMLRTAVDSLVAYSVKIETNENNLESAKGLLDDLRNDLDRLFVKVEKIHEKV
# B9: Carboxypeptidase M (protein, UniProt P14384 18-423, looked up)
# Carboxypeptidase M: LDFNYHRQEGMEAFLKTVAQNYSSVTHLHSIGKSVKGRNLWVLVVGRFPKEHRIGIPEFKYVANMHGDETVGRELLLHLIDYLVTSDGKDPEITNLINSTRIHIMPSMNPDGFEAVKKPDCYYSIGRENYNQYDLNRNFPDAFEYNNVSRQPETVAVMKWLKTETFVLSANLHGGALVASYPFDNGVQATGALYSRSLTPDDDVFQYLAHTYASRNPNMKKGDECKNKMNFPNGVTNGYSWYPLQGGMQDYNYIWAQCFEITLELSCCKYPREEKLPSFWNNNKASLIEYIKQVHLGVKGQVFDQNGNPLPNVIVEVQDRKHICPYRTNKYGEYYLLLLPGSYIINVTVPGHDPHITKVIIPEKSQNFSALKKDILLPFQGQLDSIPVSNPSCPMIPLYRNLPDHS
# Tested on: human endometrial epithelial cells (HEECs)
# Assay: LC-MS/MS analysis of plasma membrane-enriched proteins of HEECs
# Conditions: for Total unique peptides, Samples 1: sample 1, proliferative phase; for Total unique peptides, Samples 2: sample 2, proliferative phase; for Total unique peptides, Samples 3: sample 3, proliferative phase
molecule,measurement,value
B1,"Total unique peptides, Samples 1",8
same,"Total unique peptides, Samples 2",3
same,"Total unique peptides, Samples 3",2
B2,"Total unique peptides, Samples 1",3
same,"Total unique peptides, Samples 2",3
same,"Total unique peptides, Samples 3",6
B3,"Total unique peptides, Samples 1",2
same,"Total unique peptides, Samples 2",2
same,"Total unique peptides, Samples 3",1
B4,"Total unique peptides, Samples 1",7
same,"Total unique peptides, Samples 2",4
same,"Total unique peptides, Samples 3",2
B5,"Total unique peptides, Samples 1",4
same,"Total unique peptides, Samples 2",1
same,"Total unique peptides, Samples 3",1
B6,"Total unique peptides, Samples 1",11
same,"Total unique peptides, Samples 2",9
same,"Total unique peptides, Samples 3",4
B7,"Total unique peptides, Samples 1",3
same,"Total unique peptides, Samples 2",4
same,"Total unique peptides, Samples 3",1
B8,"Total unique peptides, Samples 1",3
same,"Total unique peptides, Samples 2",2
same,"Total unique peptides, Samples 3",5
B9,"Total unique peptides, Samples 1",2
same,"Total unique peptides, Samples 2",5
same,"Total unique peptides, Samples 3",2
